{"source": "patent US20110189260A1", "about": "“USE OF ZINC CHELATORS TO INHIBIT BIOFILM FORMATION” (UNIVERSITY OF CINCINNATI, priority 2008, published 2011)", "key": {"[1]": {"system": "Methicillin-Resistant Staphylococcus aureus Strain USA300", "test": "Biofilm formation assay in fibronectin pre-treated 96 well plates, crystal violet (Example 11)", "type": "cell-based", "settings": "USA300, 2% glucose, 36-40 hours", "method": "S. aureus strain USA300 was obtained from Daniel Hassett (University of Cincinnati) as a glycerol stock. 3 ml overnight cultures were grown in blood-heart infusion broth (BHI) shaking at 37° C., where cultures were diluted 1:25 for use in the biofilm assay. 2% glucose (20 ul from a 20% glucose stock) was added to each well prior to the addition of bacterial culture to promote biofilm formation. In addition, 96 well microtiter plates were pre-treated with human fibronectin (BD biomedical purchased from Fisher scientific). The fibronectin was aspirated prior to addition of chelators and glucose for the assay. Each chelator (prepared in Examples 1-6) was added directly to a 96 well microtiter plate in a series of dilutions. 20 μl of each stock solution (200, 400, 800, 1600, 3200, 6400, 13000, or 26000 μM chelator) was added to each well. 200 μl of the 1:25 dilution of USA300 bacterial culture dilution (as previously specified) were added to each well. Controls with bacterial culture media only and bacterial culture media plus vehicle controls only (final concentrations 10 mM HCl, 10% ethanol, and 10 mM NaOH) were added to wells alone without chelator. The 96 well plates were then incubated 36-40 hours statically at 37° C. […] The plates were then read on a spectrophotometer at a wavelength of 570 nm. An absorbance greater than 0.1 indicates biofilm formation."}, "[2]": {"system": "Staphylococcus aureus Strain COL", "test": "Biofilm formation assay in FBS pre-treated 96 well plates, crystal violet (Example 10)", "type": "cell-based", "settings": "2% sucrose, 36-40 hours", "method": "3 ml overnight cultures were grown in blood-heart infusion broth (BHI) shaking at 37° C., where cultures were diluted 1:25 for use in the biofilm assay.\n2% sucrose (20 μl from a 20% sucrose stock) was added to each well prior to the addition of the bacterial culture to promote biofilm formation. In addition, 96 well microtiter plates were pre-treated with fetal bovine serum (FBS) at 4° C. for at least 24 hours prior to use. The FBS was aspirated prior to addition of chelators and sucrose for the assay. […] 20 μl of each stock solution (200, 400, 800, 1600, 3200, 6400, 13000, or 26000 μM chelator) was added to each well. 200 μl of the 1:25 dilution of COL bacterial culture (as previously specified) was added to each well. Controls with bacterial culture media only and bacterial culture media plus vehicle controls only (i.e, final concentrations 10 mM HCl, 10% ethanol, and 10 mM NaOH) were added to wells alone without chelator. The 96 well plates were then incubated 36-40 hours statically at 37° C. Media was aspirated by pipet and wells were washed twice with filtered water. The plates were dried by inversion for 1 hour, and stained with 0.1% crystal violet for 15 minutes. Crystal violet was then aspirated by pipet and washed once with filtered water. The plates were then read on a spectrophotometer at a wavelength of 570 nm. An absorbance greater than 0.1 indicates biofilm formation."}}, "note": "Some results were stated once for a whole list of compounds, not compound by compound. At least one compound was matched to its structure with a doubt left."}
{"smiles": "O=C(O)CN(CCN(CC(=O)O)CC(=O)O)CCN(CC(=O)O)CC(=O)O", "note": "[DTPA, diethylenetriaminepentaacetic acid]", "values": [{"measurement": "chelator concentration above which biofilms were inhibited (absorbance of 0.1 or less)", "setting": "[1]", "result": "greater than 20 μM"}, {"measurement": "chelator concentration above which biofilms were inhibited (absorbance of 0.1 or less)", "setting": "[2]", "result": "greater than 20 μM"}]}
